The values that follow come from patent US10786483B2, “Tumescent contravenom drug delivery” (HK Pharma, priority 2016, dated 2020).

Several values for one entry are separate records, joined by “and”; a condition that tells them apart may be missing. Identical values can stand only once. Like-named read-outs stand apart in the source and are kept apart here.

A short description of series [1]: clinical. Particulars: human, serum, subcutaneous; for AUC(0-inf): 45 mg/kg, mean AUC∞ of serum lidocaine concentration-time profile, equal mg/kg dosages (45 mg/kg in FIG. 2).
Series [2] in a line: tolerance interval analysis, probability that Cmax >=6 μg/mL. The arrangement: species or system human. The protocol:
The choice of the larger Cmax is conservative, in the sense that it increased the estimated probability that any given milligram per kilogram dose would produce a Cmax ≥6 μg/mL.
Tolerance intervals were calculated at a 99% level of confidence.

The conditions of series [3]: for difference of AUC∞ without versus with liposuction (lidocaine removed by liposuction before absorption): equal doses of tumescent lidocaine; for area under the curve of the serum lidocaine concentration-time profile (AUC∞): one patient-study per line, dose in column Lido (mg/kg), subcutaneous.
The conditions of series [4]: 14 subjects, 41 procedures. From the text: Heart rates, before, during, and after tumescent infiltration and immediately after liposuction were compared.

As for `CCN(CC)CC(=O)Nc1c(C)cccc1C` [lidocaine], the Cmax (commonly the highest concentration seen after dosing) in series [1] (35 mg/kg, Cmax, 35 mg/kg without liposuction, first 2 subjects) is less than 6000 ng/mL; in series [1] (mean Cmax, with liposuction, equal mg/kg dosages), 2380 ng/mL; in series [1] (mean Cmax, without liposuction, equal mg/kg dosages), 2900 ng/mL; in series [1] (range of Cmax, with liposuction) it was 970 to 3800 ng/mL; in series [1] (range of Cmax, without liposuction), 1200 to 4400 ng/mL. Moreover, the values for the AUC(0-inf) in series [1] (with liposuction) and in series [1] (without liposuction) were 40700 ng·h/mL and 56200 ng·h/mL, respectively. The time of peak concentration (Tmax) (in general, the time from dosing to the highest level) in series [1] (mean Tmax, with liposuction) was 12.5 h; in series [1] (mean Tmax, without liposuction), 13.1 h; in series [1] (range of Tmax, with liposuction), 8 to 18 h; in series [1] (range of Tmax, without liposuction), 8 to 24 h. For the same molecule, the entries for the “estimated maximum safe dosage” value in series [2] (with liposuction) and in series [2] (without liposuction) were 45 mg/kg and 28 mg/kg, respectively. Besides, the “difference of AUC∞ without versus with liposuction (lidocaine removed by liposuction before absorption)” value in series [3] is “approximately 28%”; in series [3] (listed as tumescent lidocaine) it was 28%. The “area under the curve of the serum lidocaine concentration-time profile (AUC∞)” value was 35300 ng·h/mL and 31000 ng·h/mL and 48600 ng·h/mL and 40600 ng·h/mL and 27600 ng·h/mL and 33700 ng·h/mL and 31900 ng·h/mL and 34800 ng·h/mL and 33800 ng·h/mL and 37700 ng·h/mL and 15200 ng·h/mL and 67800 ng·h/mL and 33000 ng·h/mL and 35700 ng·h/mL in series [3] (with liposuction); 35000 ng·h/mL and 61500 ng·h/mL and 42000 ng·h/mL and 57900 ng·h/mL and 59000 ng·h/mL and 44500 ng·h/mL and 60500 ng·h/mL and 44400 ng·h/mL and 21000 ng·h/mL and 33400 ng·h/mL and 44300 ng·h/mL and 52700 ng·h/mL and 26000 ng·h/mL and 70300 ng·h/mL and 70800 ng·h/mL and 25600 ng·h/mL and 26900 ng·h/mL and 24200 ng·h/mL and 21800 ng·h/mL and 62000 ng·h/mL and 77400 ng·h/mL and 48300 ng·h/mL and 49600 ng·h/mL and 26500 ng·h/mL and 54500 ng·h/mL and 57700 ng·h/mL and 29400 ng·h/mL in series [3] (without liposuction). The “clinical evidence of toxicity” value in series [4] is recorded as “no evidence”.
